One experiment addresses T1, GFP-Rabin8 (human) (UniProt Q96QF0).
T1 sequence: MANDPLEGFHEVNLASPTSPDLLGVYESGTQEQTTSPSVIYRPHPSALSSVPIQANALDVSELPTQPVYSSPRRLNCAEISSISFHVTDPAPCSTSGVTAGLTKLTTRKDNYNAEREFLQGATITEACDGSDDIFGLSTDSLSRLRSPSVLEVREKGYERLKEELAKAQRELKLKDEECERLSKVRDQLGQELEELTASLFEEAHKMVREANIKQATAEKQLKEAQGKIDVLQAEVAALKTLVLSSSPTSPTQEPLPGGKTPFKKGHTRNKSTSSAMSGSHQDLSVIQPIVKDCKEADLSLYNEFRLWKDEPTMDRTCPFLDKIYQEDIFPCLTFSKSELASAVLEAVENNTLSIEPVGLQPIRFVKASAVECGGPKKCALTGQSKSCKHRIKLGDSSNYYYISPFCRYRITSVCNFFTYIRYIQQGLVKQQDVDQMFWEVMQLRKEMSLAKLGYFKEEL
Nature of the experiment: co-IP; Rab8A KO HeLa cells co-transfected with GFP-Rabin8 and HA-Rab8A WT, S111E or S111A; whole-cell lysate (1 mg) immunoprecipitated with GFP binder sepharose resin, immunoblotted with anti-HA and anti-GFP.

Amino acid sequences for entries named in this document (tags omitted). A change or cut given only in a name is not applied to a line headed by its entry. Residues count along the entry.
UniProt Q01968, residues 539-901: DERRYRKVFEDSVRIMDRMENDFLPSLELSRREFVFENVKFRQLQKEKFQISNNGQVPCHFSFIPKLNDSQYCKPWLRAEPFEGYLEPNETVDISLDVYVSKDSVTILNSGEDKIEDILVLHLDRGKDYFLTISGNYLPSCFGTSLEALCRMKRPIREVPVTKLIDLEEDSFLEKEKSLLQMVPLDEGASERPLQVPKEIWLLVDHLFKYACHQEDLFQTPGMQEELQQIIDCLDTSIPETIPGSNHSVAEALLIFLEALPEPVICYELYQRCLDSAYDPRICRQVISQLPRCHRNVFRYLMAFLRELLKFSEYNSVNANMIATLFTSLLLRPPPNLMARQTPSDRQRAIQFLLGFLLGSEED
UniProt P61006: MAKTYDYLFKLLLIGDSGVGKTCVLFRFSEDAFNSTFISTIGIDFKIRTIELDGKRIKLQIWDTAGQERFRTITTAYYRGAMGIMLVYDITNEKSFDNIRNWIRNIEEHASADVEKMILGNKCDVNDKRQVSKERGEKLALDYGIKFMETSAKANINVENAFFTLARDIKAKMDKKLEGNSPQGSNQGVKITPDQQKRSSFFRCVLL

In the next experiment the target is OCRL1(539-901) (UniProt Q01968). In words: SEC; analytical gel filtration, Superdex 200 (10/30); OCRL1(539-901) 15 uM and Rab protein 19.5 uM (GppNHp-loaded) incubated 1 h in 70 ul; 20 mM HEPES pH 7.5, 50 mM NaCl, 2 mM DTE, 1 mM MgCl2, 1 uM GppNHp; detection at 254 nm; both purified.
The target of a further experiment is HA-Rab8A S111A (human) (UniProt P61006). In words: co-IP; HA-Rab8A WT, S111E or S111A transfected in Rab8A KO HeLa cells; whole-cell lysate (1 mg) immunoprecipitated with anti-HA agarose, immunoblotted with anti-Rabin8 (endogenous) and anti-HA.
Experiment [1] addresses wild-type HA-Rab8A (human) (UniProt P61006). Described as above.

No constants are given. Whether binding was seen depends on the method and setting. For part of these data: Binding seen in cells or lysates may run through a third protein. Some entries that bind do so weakly or less than the wild type. For part of these data: Where a sequence is shown, tags or fusion partners need not be part of it.

For the molecule “HA-Rab8A S111A (from UniProt P61006 1-207)”, the binding entry in the experiment with GFP-Rabin8 (human) is “binds”.

On to “Rab8A S111E (recombinant) (from UniProt P61006 1-207)”, for which the binding result with OCRL1(539-901) is listed as “binds”.

For the molecule “Rab8A wild-type (recombinant) (from UniProt P61006 1-207)”, the binding entry with OCRL1(539-901) is on record as “binds”.

Turning to “wild-type HA-Rab8A (from UniProt P61006 1-207)”, the binding entry with GFP-Rabin8 (human) was “binds”.

B1: endogenous Rabin8 (protein, UniProt Q96QF0-2 1-460)
chain: MANDPLEGFHEVNLASPTSPDLLGVYESGTQEQTTSPSVIYRPHPSALSSVPIQANALDVSELPTQPVYSSPRRLNCAEISSISFHVTDPAPCSTSGVTAGLTKLTTRKDNYNAEREFLQGATITEACDGSDDIFGLSTDSLSRLRSPSVLEVREKGYERLKEELAKAQRELKLKDEECERLSKVRDQLGQELEELTASLFEEAHKMVREANIKQATAEKQLKEAQGKIDVLQAEVAALKTLVLSSSPTSPTQEPLPGGKTPFKKGHTRNKSTSSAMSGSHQDLSVIQPIVKDCKEADLSLYNEFRLWKDEPTMDRTCPFLDKIYQEDIFPCLTFSKSELASAVLEAVENNTLSIEPVGLQPIRFVKASAVECGGPKKCALTGQSKSCKHRIKLGDSSNYYYISPFCRYRITSVCNFFTYIRYIQQGLVKQQDVDQMFWEVMQLRKEMSLAKLGYFKEEL
Consider B1, for which the binding entry (with HA-Rab8A S111A (human); in experiment [1]) was “binds” throughout.

These data come from publication PMC4654935.
